Patent US9247740B2, “Isoxazoline derivatives as insecticidal compounds” (Syngenta Participations AG, priority 2011, dated 2016)
Some results were stated once for a whole list of compounds, not compound by compound. At least one compound was matched to its structure with a doubt left.

Columns and labels:
Assay type in all cases: in vivo
[1] = system: Heliothis virescens (Tobacco Budworm); experiment: Heliothis virescens egg test on artificial diet; conditions: 200 ppm (concentration in well 18 ppm), eggs 0-24 h old on artificial diet; egg mortality, larval mortality, growth regulation after 4 days
Source text: (§1) This Example illustrates the insecticidal and acaricidal properties of compounds of formula (I).

[2] = system: Diabrotica balteata (Corn Root Worm); experiment: Diabrotica balteata larval test on artificial diet; conditions: 200 ppm (concentration in well 18 ppm), L2 larvae, larval mortality and growth regulation after 5 days
Source text: as §1

[3] = system: Myzus persicae (Green Peach Aphid); experiment: Myzus persicae sachet test, mixed population; conditions: 12.5 ppm in sucrose solution (sachet), mortality 5 days after infestation
[4] = system: Thrips tabaci (Onion Thrips); experiment: Thrips tabaci leaf disc spray test; conditions: 200 ppm spray on sunflower leaf discs, mixed ages; mortality after 7 days
Source text: as §1

[5] = system: Tetranychus urticae (Two-Spotted Spider Mite); experiment: Tetranychus urticae leaf disc spray test; conditions: 200 ppm spray on bean leaf discs, mixed ages; egg, larval and adult mortality 8 days later
Source text: as §1

[6] = system: Spodoptera littoralis (Egyptian Cotton Leafworm); experiment: Spodoptera littoralis leaf disc spray test; conditions: 200 ppm spray on cotton leaf discs; mortality, feeding behavior, growth regulation 3 days after treatment
Description: This Example illustrates the insecticidal and acaricidal properties of compounds of formula (I). Tests were performed as follows:

[7] = system: Plutella xylostella (Diamond Back Moth); experiment: Plutella xylostella larval test on artificial diet; conditions: 200 ppm (concentration in well 18 ppm), L2 larvae, larval mortality and growth regulation after 6 days
Source text: as §1

[8] = system: Nilaparvata lugens (Brown Plant Hopper); experiment: Nilaparvata lugens larvicide, feeding/contact on rice seedlings; conditions: 200 ppm spray on rice seedlings, N3 nymphs; mortality 6-12 days after treatment

Cc1cc(C2=NOC(c3cc(Cl)c(Cl)c(Cl)c3)(C(F)(F)F)C2)ccc1C(=O)NC1CSC1 (stereo not shown) [Compound A125]
at least 80%: control of Heliothis virescens [1] | control of Diabrotica balteata [2] | control of Myzus persicae [3] | control of Thrips tabaci [4] | control of Tetranychus urticae [5] | control of Spodoptera littoralis [6] | control of Plutella xylostella [7] | control of Nilaparvata lugens [8]

Cc1cc(C2=NOC(c3cc(Cl)cc(Cl)c3)(C(F)(F)F)C2)ccc1C(=O)NCCC1CS(=O)(=O)C1 (stereo not shown) [Compound A133]
at least 80%: control of Heliothis virescens [1] | control of Diabrotica balteata [2] | control of Myzus persicae [3] | control of Thrips tabaci [4] | control of Tetranychus urticae [5] | control of Spodoptera littoralis [6] | control of Plutella xylostella [7] | control of Nilaparvata lugens [8]

Cc1cc(C2=NOC(c3cc(Cl)c(F)c(Cl)c3)(C(F)(F)F)C2)ccc1C(=O)NC1CS(=O)(=O)C1 (stereo not shown) [Compound A139]
at least 80%: control of Heliothis virescens [1] | control of Diabrotica balteata [2] | control of Myzus persicae [3] | control of Thrips tabaci [4] | control of Tetranychus urticae [5] | control of Spodoptera littoralis [6] | control of Plutella xylostella [7] | control of Nilaparvata lugens [8]

Cc1cc(C2=NOC(c3cc(Cl)c(I)c(Cl)c3)(C(F)(F)F)C2)ccc1C(=O)NC1C[S+]([O-])C1 (stereo not shown) [Compound A145]
at least 80%: control of Heliothis virescens [1] | control of Diabrotica balteata [2] | control of Myzus persicae [3] | control of Thrips tabaci [4] | control of Tetranychus urticae [5] | control of Spodoptera littoralis [6] | control of Plutella xylostella [7] | control of Nilaparvata lugens [8]

O=C(NC1CSC1)c1ccc(C2=NOC(c3cc(Cl)cc(Cl)c3)(C(F)(F)F)C2)cc1Br (stereo not shown) [Compound B06]
at least 80%: control of Heliothis virescens [1] | control of Diabrotica balteata [2] | control of Myzus persicae [3] | control of Thrips tabaci [4] | control of Tetranychus urticae [5] | control of Spodoptera littoralis [6] | control of Plutella xylostella [7] | control of Nilaparvata lugens [8]

COc1cc(C2=NOC(c3cc(Cl)cc(Cl)c3)(C(F)(F)F)C2)ccc1C(=O)NC1C[S+]([O-])C1 (stereo not shown) [Compound B27]
at least 80%: control of Heliothis virescens [1] | control of Diabrotica balteata [2] | control of Myzus persicae [3] | control of Thrips tabaci [4] | control of Tetranychus urticae [5] | control of Spodoptera littoralis [6] | control of Plutella xylostella [7] | control of Nilaparvata lugens [8]

O=C(NC1C[S+]([O-])C1)c1ccc(C2=NOC(c3cc(Cl)cc(Cl)c3)(C(F)(F)F)C2)cc1Cl (stereo not shown) [Compound B31]
at least 80%: control of Heliothis virescens [1] | control of Diabrotica balteata [2] | control of Myzus persicae [3] | control of Thrips tabaci [4] | control of Tetranychus urticae [5] | control of Spodoptera littoralis [6] | control of Plutella xylostella [7] | control of Nilaparvata lugens [8]

Cc1cc(C2=NOC(c3cc(Cl)cc(Cl)c3)(C(F)(F)F)C2)cnc1C(=O)NC1CS(=O)(=O)C1 (stereo not shown) [Compound B36]
at least 80%: control of Heliothis virescens [1] | control of Diabrotica balteata [2] | control of Myzus persicae [3] | control of Thrips tabaci [4] | control of Tetranychus urticae [5] | control of Spodoptera littoralis [6] | control of Plutella xylostella [7] | control of Nilaparvata lugens [8]

Cc1cc(C2=NOC(c3cc(Cl)cc(Cl)c3)(C(F)(F)F)C2)cnc1C(=O)NC1C[S+]([O-])C1 (stereo not shown) [Compound B39]
at least 80%: control of Heliothis virescens [1] | control of Diabrotica balteata [2] | control of Myzus persicae [3] | control of Thrips tabaci [4] | control of Tetranychus urticae [5] | control of Spodoptera littoralis [6] | control of Plutella xylostella [7] | control of Nilaparvata lugens [8]

Cc1cc(C2=NOC(c3cc(Cl)cc(Cl)c3)(C(F)(F)F)C2)ncc1C(=O)NC1C[S+]([O-])C1 (stereo not shown) [Compound B50]
at least 80%: control of Heliothis virescens [1] | control of Diabrotica balteata [2] | control of Myzus persicae [3] | control of Thrips tabaci [4] | control of Tetranychus urticae [5] | control of Spodoptera littoralis [6] | control of Plutella xylostella [7] | control of Nilaparvata lugens [8]

O=C(NC1C[S+]([O-])C1)c1ccc(C2=NOC(c3cc(Cl)cc(Cl)c3)(C(F)(F)F)C2)cc1C(F)(F)F (stereo not shown) [Compound B58]
at least 80%: control of Heliothis virescens [1] | control of Diabrotica balteata [2] | control of Myzus persicae [3] | control of Thrips tabaci [4] | control of Tetranychus urticae [5] | control of Spodoptera littoralis [6] | control of Plutella xylostella [7] | control of Nilaparvata lugens [8]
